# Experimental data published in paper doi:10.1101/2022.12.16.520750.
# Chains of the proteins cited; added tags and fusions are not shown.
# UniProt Q07157: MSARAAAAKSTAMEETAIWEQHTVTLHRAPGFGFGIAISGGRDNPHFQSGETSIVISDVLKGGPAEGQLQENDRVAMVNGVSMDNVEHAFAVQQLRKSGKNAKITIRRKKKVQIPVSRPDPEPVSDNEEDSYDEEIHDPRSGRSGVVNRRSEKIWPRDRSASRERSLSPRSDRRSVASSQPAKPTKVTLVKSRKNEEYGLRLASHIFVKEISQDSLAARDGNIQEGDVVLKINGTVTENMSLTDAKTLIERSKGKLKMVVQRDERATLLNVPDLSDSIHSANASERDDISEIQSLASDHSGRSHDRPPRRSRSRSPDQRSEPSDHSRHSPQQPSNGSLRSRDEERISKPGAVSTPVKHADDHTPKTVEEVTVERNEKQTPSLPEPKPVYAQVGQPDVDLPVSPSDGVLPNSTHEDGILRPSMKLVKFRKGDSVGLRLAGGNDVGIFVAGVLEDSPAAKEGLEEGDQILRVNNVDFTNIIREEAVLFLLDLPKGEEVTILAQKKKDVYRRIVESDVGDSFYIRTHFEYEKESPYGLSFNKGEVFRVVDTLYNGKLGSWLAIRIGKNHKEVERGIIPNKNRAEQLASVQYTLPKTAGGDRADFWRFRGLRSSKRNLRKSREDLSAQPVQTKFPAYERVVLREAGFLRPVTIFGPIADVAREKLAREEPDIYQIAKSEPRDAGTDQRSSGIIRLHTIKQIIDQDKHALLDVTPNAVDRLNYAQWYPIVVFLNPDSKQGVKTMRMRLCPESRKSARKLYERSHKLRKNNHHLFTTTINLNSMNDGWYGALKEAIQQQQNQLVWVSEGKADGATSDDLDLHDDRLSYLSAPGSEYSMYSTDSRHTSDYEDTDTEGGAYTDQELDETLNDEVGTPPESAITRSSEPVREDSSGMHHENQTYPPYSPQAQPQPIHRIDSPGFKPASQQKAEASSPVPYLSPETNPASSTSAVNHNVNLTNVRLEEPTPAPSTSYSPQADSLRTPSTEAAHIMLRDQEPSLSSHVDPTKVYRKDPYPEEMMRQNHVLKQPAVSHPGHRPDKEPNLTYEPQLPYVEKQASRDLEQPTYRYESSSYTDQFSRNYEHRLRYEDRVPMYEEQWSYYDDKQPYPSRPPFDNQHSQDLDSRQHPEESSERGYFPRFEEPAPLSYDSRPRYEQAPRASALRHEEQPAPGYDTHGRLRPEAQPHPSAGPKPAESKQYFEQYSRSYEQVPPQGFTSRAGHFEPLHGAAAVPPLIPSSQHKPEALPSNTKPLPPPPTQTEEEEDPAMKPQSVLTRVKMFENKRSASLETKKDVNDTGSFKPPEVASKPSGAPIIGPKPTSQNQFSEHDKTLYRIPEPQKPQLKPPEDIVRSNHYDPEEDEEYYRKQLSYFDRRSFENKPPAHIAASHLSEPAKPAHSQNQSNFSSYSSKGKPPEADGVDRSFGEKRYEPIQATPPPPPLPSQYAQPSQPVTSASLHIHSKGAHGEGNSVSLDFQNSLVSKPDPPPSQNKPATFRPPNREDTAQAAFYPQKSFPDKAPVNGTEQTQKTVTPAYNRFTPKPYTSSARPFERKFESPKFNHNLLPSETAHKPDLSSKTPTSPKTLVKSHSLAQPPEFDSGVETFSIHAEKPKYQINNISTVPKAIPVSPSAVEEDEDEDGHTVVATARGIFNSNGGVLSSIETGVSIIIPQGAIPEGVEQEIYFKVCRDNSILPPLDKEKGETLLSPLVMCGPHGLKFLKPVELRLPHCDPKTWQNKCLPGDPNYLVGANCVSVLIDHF
# UniProt E2QYC9: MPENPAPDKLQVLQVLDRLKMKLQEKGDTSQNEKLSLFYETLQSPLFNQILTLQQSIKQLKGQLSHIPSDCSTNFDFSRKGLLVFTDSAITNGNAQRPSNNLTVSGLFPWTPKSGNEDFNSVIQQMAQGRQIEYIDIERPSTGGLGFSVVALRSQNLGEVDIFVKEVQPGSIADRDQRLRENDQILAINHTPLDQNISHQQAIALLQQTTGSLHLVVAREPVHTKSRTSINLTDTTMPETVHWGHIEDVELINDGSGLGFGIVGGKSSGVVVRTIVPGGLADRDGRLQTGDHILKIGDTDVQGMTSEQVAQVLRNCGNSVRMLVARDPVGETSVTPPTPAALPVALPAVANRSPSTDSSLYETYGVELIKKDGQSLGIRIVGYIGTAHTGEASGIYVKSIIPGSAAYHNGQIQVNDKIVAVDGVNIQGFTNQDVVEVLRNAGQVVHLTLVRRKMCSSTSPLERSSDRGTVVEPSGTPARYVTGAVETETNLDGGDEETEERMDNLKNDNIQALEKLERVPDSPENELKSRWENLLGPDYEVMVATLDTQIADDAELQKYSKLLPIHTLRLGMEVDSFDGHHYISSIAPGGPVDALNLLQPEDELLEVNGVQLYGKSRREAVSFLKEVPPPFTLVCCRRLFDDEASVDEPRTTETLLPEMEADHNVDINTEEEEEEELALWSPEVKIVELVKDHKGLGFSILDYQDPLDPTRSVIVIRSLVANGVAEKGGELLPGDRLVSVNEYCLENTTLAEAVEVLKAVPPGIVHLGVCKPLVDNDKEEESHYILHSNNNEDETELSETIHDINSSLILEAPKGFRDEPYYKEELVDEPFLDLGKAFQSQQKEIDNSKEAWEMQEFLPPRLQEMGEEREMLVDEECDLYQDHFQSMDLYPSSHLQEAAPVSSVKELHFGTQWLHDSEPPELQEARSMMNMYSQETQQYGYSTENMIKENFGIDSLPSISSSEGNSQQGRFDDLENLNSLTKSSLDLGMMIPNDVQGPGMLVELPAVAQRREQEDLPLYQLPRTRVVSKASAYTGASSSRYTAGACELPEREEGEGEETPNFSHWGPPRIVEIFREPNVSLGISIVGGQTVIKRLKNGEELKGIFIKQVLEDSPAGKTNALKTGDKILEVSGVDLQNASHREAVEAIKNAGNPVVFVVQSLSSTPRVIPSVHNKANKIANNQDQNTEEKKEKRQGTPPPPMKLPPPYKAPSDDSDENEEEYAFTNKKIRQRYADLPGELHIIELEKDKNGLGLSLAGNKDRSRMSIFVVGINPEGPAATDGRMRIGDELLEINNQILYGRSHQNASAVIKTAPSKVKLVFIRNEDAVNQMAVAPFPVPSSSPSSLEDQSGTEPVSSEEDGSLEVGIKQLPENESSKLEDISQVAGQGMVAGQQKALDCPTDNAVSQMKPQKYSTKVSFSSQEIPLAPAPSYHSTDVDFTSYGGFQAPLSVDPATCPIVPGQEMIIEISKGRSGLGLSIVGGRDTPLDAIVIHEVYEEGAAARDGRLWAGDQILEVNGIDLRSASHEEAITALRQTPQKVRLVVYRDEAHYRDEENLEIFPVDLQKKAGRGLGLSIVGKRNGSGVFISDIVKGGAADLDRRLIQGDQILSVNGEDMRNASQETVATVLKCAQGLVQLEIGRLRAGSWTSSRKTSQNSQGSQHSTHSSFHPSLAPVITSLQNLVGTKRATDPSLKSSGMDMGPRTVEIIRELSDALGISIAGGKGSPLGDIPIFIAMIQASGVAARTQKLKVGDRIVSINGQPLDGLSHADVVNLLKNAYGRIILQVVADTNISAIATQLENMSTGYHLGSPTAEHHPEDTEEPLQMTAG
# No constants are given. Whether binding was seen depends on the method and setting. In cells and extracts the contact can be indirect. Here binding means that the protein was enriched with, or labelled near, the bait; the list need not be complete.
# B1: CGN (protein, UniProt A7YH32 1-1196)
# chain: MEQASTMAEPRGPVDHGVQIRFITEPVGNAEMDTLRRGGRRPAKDARANTYGVAVRVQGIAGQPFVVLNSGEQGSDSFGVQIKGTNNRGPPGALSSDSELPESTYSHAKEFPARSQGSMSDEELGAHWNGRLLRSQSQASLKGPAPVSPSTRSTSLLQLAPEVASPGSTIDTAPLSSVDSLINKFDSRQGGQARGRTGRRMRTLPPEQRKRSQSLDNRLPRDTLDEREHQFPTHWTPSTKRDSHMGNSKQSSQNQGPLGGFSCSRQTQDWVLQSFEEPRGRAWDPGMLQFKSTPDLLRDQQETAPPGSVDHVKATIYSILREGSSETETSVRRKVNLVLEQMQPLVMTSGSAKGLTGQSELSQKVEELQQKLDEEVKKRPKLESSRLGLERQLQEKAEECSQLQELLERRKGEAQQSTKELQNMKLLVDQSERVRCGLEAQVKELQDKLKQAQEPEPAKEALMKDLLEARELLEEVLEGKQRMEEHLRLRERELTALKGALKEEVASRDQEVEHVRQQCQRDAEQLRRSIQDATQDHAALEVERQKMSTLVRELQKELEETSEETGHWQSMFQKNKDELRATKQELLQLRMEKEEIEEELGEKIEVLQRELGQARAGAADTRQMEELKKELCQTQKELKELKEEQQNQEVAGRHRERELEKQLKVEADRGQGLEQQNLQLQKTLQQLRQDCEEASKAQVAAEAEVAVLGQRRAAVEVTLRETQEENDEFRRRILGLEQQLKEARGLAEGGEVAEARLRDKVQRLEAEKQRLEEALNAAQEEEGSLAAAKRALEARLEEAQRGLARLGQEQLALNRALEEEGKQREALRRSKAELEEQKRLLDKTVCQLNKELEQIGNDSKQALQQLQAQLEDYKEKARREVADAQRQAKEWATEAEKNSGGLSRLQDETQRLRQALQASQADRDTARLDKELLAQRLQGLEQEAENKKRSQDDRARQLKGLEEKVSRLEAELDEERSTVELLTERVTRGRDQVDQLRSELMQERSARQDLECDKISLERQNKDLKSRLASSEGFQKPSASLSQLESQNQELQERLQAEEREKTVLQSTNRKLERRVKELSIQIDDERQHVNDQKDQLSLRVKALKRQVDEAEEEIERLDGLRKKAQRELEEQHEVNEQLQARIKTLEKDSWRKASRSAAESAQREGLSSDEEFDSVYDPSSIASLLTESNLQTSSC
# B2: ZO2 (protein, UniProt Q95168 1-1174)
# chain: MEELIWEQYTVTLQKDSKRGFGIAVSGGRDNPHFENGETSIVISDVLPGGPADGLLQENDRVVMVNGTPMEDVLHSFAVQQLRKSGKIAAIVVKRPRKVQLAPPQGSLPVDEDDRAFEVMDEFDGRSARSGYSERSRRSSHGGRSRSWEDSPERGRPHERAWSQERERSRGRSLERGLDHDDDYRRPRERSRGRSLERGLDHDDDYGRPGERSHGMSTDRGYDRGYDRGYDRGYDRTYSPEAEYGRRTQPDARHAGSRSRSREHLRSRSPSPELRGRPDHAGQPDSDRPIGVLLMKSKANEEYGLRLGSQIFIKQMTRTALATKDGNLHEGDIILKINGTVTENMSLTDARKLIEKSRGKLQLVVLRDSKQTLINIPSLNDSDSEIEDISEIESNRSFSPEERRQQYSDYDYHSSNEKLKERPNSREDMQNRWSRMGATPTPFKSMGDIASVVGTENSKEPRYQEEPPAPQPKAAPRTFLRPSPEDEAIYGPNTKMVRFKKGDSVGLRLAGGNDVGIFVAGIQEGTSAEQEGLQEGDQILKVNTQDFRGLVREDAVLYLLEIPKGEMVTILAQSRADVYRDILACGRGDSFFIRSHFECEKETPQSLAFSRGEVFRVVDTLYDGKLGHWLAVRIGNELEKGLIPNKSRAEQMASVQNAQRDNAGDRADFWRMRGQRSGMKKNLRKSREDLTAAVSVSTKFPAYERVLLREAGFKRPVVLFGPIADIALEKLANELPDLFQTAKTEPKDAGSEKSSGVVRLNTVRQIIEQDKHALLDVTPKAVDLLNYTQWFPIVIFFNPDSRQGVKTMRQRLNPTSNKSSRKLYDQANKLKKTCAHLFTATINLNSANDSWFGSLKDTIQHQQGEAVWVSEGKMEGMDDDPEDRMSYLTAMGADYLSCDSRLISDFEDTDGEGGAYTDNELDEPAEEPLVSSITRSSEPVQHEESIRKPSPEPRAQMRRAASRDQLRDSSPPPAFKPEPPKAKTQNREESFDISRSHDYKSNPSAVAGNEVSGASTRSCPPPIAAKPSFGRSILKPSTPVPSPESEEVGEGSEEQEGAPKSVLGKVKIFEKMDHKARLQRMQELQEAQNARIEIAQKHPDIYAVPIKTHKPDPGLSQHTSSRPPEPQKGPSRLYQDPRGSYGSDAEEEEYRQQLSEHSKRGYYSQPSRYRDTEL
# B3: claudin-4 (protein, UniProt A0A8C0N7E5 1-210)
# chain: MASMGLQVMGIALAVLGWLGAILSCALPMWRVTAFIGSNIVTSQTIWEGLWMNCVVQSTGQMQCKVYDSLLALPQDLQAARALMVVSIILAALGVLLSVVGGKCTNCVEDESAKAKTMIVAGVVFLLAGLLVMVPASWTANNIIRDFYNPLVVSGQKREMGASLYVGWAASGLLLLGGALLCCNCPPRADKPYSAKYSAAARSAPASNYV
# B4: occludin (protein, UniProt Q28269 1-521)
# chain: MSSRPFESPPPYRPDEFKPNHYAPSNDVYGGDMHVRPMLSQPAYSFYPEDEILHFYKWTSPPGVIRILSMLVIVMCIAIFGCVASTLAWDRGYGTGLMGGSIGYPYGSGFGSYGTGYGYGFGYGYGYGGYTDPRAAKGFLLAMVAFCFIAALVIFVTSVIRSDISRTRRYYLTVIILSAFLGVMMFIATIVYIMGVNPTAQASGSLYSSQIYAMCNQFYASTATGLYMDQYLYHYCVVDPQEAIAIVLGFMVIVAFALIIFFAVKTRRKMDRYDKSNILWDKEHIYDEQPPNVEEWVKNVSAGTQDMPPPPSDYVERVDSPMAYSSNGKVNDKRLYPESSYKSTPVPEVVQELPATSPADDFRQPRYSSSGHLEPPSKRAPSKGRTGRPKRLEQDHYETDYTTGGESCDELEEDWIREYPPITSDQQRQLYKRNFDTGLQEYKSLQAELDEINKELSRLDKELDDYREESEEYMAAADEYNRLKQVKGSPDYKNKRNYCKQLKSKLSHIKKMVGDYDRQKT
# Target: Dendra2-ZO1-APEX2 (UniProt Q07157)
# Assay: proximity labelling
row,binding,Molecule
1,binds,PATJ (from UniProt E2QYC9 1-1828)
2,binds,B1
3,binds,B2
4,binds,B3
5,binds,B4
